According to the supplement of paper PMC10849652:
This is one part of the list.

Amino acid sequences for entries named in this document (tags omitted). A change or cut given only in a name is not applied to a line headed by its entry.
UniProt P27816: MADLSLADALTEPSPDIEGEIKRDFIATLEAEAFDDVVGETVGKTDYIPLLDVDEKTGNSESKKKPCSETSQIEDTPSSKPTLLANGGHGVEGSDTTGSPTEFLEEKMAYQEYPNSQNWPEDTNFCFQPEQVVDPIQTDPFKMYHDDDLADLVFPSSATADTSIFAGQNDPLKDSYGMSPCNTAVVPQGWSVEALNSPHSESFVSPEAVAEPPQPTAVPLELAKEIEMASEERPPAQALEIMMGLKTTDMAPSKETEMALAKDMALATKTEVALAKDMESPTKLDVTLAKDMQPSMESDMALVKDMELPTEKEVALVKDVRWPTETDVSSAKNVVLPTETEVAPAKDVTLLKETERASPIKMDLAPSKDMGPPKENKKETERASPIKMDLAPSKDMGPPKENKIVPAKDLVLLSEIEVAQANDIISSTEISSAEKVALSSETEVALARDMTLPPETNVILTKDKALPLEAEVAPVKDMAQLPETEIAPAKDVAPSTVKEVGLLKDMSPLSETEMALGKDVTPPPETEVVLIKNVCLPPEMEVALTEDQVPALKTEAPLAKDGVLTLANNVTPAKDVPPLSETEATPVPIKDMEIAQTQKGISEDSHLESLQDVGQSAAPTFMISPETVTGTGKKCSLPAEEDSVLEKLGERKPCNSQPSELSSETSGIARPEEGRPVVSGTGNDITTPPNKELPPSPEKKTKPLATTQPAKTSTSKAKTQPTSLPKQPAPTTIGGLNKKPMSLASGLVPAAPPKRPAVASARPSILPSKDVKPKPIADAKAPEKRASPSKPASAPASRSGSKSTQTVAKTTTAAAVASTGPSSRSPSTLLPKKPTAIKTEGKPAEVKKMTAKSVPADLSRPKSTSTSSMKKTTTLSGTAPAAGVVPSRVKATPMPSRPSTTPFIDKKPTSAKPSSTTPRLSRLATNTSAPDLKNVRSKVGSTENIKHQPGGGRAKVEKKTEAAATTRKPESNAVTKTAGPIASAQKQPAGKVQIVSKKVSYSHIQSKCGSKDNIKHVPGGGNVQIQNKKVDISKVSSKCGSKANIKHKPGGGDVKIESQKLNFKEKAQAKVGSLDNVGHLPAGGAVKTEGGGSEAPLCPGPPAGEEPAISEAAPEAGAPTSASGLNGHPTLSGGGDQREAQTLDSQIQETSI
UniProt Q9BRK4: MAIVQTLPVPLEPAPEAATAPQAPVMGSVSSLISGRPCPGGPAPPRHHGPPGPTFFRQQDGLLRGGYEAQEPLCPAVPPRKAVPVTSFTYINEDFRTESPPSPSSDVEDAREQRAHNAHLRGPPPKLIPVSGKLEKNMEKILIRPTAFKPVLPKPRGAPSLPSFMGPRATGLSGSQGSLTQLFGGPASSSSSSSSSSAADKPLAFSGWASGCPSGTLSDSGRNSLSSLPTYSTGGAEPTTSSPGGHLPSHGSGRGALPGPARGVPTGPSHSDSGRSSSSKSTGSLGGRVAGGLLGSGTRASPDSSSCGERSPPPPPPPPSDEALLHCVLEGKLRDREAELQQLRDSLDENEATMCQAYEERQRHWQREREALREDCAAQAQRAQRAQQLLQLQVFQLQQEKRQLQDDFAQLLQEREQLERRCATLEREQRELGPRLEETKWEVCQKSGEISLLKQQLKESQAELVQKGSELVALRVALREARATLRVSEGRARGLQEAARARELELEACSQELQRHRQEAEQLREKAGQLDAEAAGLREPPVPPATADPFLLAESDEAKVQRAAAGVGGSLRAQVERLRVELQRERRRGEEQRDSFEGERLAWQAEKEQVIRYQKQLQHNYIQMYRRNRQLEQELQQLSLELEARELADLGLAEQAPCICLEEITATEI
UniProt Q13163: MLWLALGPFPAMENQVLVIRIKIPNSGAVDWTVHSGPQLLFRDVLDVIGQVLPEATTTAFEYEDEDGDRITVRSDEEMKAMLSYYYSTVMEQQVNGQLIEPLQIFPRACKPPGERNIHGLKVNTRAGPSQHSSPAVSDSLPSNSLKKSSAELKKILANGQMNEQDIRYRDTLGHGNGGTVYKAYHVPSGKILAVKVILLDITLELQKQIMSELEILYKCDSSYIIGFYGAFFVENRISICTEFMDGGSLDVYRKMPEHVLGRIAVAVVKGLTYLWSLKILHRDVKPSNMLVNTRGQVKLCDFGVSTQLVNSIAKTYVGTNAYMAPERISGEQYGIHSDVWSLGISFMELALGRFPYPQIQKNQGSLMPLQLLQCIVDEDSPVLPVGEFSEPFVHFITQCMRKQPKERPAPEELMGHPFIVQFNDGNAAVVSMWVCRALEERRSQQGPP
UniProt Q9NQG1: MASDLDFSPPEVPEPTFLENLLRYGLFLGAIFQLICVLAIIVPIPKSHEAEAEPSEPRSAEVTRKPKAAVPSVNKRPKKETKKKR
UniProt Q99683: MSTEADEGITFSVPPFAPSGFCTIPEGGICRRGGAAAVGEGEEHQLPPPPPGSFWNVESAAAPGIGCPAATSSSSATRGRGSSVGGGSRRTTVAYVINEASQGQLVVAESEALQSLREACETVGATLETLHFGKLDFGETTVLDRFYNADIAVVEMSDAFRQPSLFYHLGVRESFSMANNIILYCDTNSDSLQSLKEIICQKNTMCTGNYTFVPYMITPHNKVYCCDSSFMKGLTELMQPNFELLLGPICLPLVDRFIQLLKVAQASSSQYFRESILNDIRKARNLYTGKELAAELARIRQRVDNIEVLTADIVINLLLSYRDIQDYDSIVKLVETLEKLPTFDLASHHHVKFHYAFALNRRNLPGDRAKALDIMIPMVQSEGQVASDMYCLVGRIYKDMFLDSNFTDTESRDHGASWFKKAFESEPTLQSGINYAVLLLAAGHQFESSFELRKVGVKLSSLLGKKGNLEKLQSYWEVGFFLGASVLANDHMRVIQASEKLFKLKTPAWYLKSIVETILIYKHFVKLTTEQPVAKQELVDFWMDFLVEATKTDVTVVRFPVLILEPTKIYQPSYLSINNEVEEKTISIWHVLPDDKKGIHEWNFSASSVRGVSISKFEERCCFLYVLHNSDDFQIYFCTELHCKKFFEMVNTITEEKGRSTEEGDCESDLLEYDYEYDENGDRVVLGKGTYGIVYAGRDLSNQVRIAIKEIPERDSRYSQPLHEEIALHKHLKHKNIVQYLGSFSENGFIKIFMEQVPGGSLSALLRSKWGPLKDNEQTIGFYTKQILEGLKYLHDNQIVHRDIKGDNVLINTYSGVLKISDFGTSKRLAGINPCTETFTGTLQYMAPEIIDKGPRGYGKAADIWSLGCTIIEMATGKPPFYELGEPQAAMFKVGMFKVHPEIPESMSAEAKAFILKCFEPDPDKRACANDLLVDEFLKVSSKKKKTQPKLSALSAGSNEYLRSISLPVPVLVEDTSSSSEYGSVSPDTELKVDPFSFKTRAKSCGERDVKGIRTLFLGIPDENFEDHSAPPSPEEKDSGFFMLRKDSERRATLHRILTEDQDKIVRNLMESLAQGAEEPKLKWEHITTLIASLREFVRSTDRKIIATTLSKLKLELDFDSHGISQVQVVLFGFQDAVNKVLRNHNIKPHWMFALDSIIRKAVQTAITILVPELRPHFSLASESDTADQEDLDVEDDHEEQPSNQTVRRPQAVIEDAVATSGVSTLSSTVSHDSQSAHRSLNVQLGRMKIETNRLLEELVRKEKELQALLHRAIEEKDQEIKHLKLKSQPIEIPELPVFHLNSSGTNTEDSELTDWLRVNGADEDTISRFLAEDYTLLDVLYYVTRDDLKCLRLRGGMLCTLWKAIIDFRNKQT
UniProt Q16553: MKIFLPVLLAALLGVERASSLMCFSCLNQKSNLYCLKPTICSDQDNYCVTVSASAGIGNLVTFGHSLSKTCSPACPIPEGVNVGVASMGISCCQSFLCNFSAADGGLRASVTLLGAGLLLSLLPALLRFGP
UniProt Q96GA3: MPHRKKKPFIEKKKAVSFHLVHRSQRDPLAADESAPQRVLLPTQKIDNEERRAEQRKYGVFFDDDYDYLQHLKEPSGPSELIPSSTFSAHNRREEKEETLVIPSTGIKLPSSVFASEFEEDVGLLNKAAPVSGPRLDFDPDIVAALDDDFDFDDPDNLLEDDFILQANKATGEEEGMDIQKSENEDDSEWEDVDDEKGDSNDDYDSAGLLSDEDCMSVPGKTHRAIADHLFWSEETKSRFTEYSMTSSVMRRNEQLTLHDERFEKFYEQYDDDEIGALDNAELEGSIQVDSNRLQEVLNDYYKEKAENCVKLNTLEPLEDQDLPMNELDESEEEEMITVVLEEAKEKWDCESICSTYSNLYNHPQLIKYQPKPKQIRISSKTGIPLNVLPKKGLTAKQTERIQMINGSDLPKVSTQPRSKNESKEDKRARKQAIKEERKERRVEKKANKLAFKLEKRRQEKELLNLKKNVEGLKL
UniProt Q6P0Q8: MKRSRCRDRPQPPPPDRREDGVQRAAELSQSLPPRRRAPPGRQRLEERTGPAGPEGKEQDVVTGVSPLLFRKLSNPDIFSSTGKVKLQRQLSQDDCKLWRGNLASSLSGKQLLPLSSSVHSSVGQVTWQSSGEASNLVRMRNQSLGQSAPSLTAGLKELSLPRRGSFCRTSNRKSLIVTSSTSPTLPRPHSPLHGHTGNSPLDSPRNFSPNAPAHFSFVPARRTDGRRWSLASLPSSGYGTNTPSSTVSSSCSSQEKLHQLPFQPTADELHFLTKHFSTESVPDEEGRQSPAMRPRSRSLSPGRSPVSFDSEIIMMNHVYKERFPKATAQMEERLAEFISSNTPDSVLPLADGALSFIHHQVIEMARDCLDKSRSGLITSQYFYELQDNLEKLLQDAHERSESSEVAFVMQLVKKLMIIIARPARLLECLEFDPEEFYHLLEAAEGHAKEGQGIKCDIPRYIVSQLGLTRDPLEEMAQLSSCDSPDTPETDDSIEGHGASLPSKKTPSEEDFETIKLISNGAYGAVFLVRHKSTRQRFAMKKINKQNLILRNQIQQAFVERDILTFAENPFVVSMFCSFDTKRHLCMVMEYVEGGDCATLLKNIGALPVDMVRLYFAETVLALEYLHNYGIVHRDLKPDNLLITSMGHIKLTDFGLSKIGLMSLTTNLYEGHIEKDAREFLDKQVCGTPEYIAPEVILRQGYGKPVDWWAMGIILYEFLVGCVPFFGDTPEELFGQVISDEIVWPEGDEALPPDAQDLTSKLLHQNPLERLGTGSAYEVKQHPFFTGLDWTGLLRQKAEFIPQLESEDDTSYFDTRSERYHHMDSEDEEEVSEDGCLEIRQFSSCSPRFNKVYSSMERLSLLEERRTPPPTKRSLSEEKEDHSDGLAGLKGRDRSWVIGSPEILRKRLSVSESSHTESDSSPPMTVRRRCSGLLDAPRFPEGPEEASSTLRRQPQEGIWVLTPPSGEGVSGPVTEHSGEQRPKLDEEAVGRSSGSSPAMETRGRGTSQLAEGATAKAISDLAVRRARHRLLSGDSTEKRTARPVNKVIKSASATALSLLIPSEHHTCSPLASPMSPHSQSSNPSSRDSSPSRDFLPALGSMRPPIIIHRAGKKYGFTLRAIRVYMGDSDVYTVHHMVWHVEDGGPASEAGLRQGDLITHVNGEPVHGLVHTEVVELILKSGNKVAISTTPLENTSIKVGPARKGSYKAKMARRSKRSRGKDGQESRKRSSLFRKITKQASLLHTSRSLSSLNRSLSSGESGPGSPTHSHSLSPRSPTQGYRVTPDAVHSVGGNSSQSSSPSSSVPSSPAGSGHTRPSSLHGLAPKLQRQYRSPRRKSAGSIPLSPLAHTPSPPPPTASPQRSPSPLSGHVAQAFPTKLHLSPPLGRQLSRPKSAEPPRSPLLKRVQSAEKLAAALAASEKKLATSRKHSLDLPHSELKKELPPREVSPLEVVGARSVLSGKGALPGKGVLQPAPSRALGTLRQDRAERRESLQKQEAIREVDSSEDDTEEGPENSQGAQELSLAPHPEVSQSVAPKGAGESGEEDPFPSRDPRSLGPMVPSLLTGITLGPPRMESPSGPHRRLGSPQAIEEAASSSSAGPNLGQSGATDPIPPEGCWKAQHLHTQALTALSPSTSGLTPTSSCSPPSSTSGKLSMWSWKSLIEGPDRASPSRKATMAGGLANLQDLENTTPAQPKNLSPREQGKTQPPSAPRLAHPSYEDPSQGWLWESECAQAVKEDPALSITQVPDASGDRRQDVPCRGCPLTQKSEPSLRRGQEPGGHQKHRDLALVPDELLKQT
UniProt Q9HAY2: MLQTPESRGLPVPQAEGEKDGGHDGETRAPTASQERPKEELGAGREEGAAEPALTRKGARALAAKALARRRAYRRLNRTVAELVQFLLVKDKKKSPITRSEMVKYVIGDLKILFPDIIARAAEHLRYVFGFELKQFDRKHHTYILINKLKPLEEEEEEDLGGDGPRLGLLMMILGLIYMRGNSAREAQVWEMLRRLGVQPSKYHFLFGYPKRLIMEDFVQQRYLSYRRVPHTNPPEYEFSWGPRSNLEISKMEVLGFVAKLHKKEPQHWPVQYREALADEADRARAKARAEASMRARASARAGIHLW

Legend:
Test in all cases: log2 fold change, soluble protein after heating vs DMSO (PISA); higher = thermal stabilisation; K562 lysate, 10 uM; active = over 0.2 and 3.5 SD of the protein, either way, in both replicates (recomputed)
lapatinib = compound: CS(=O)(=O)CCNCc1ccc(-c2ccc3ncnc(Nc4ccc(OCc5cccc(F)c5)c(Cl)c4)c3c2)o1 [lapatinib]
In short: (§1)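 K562 pellets were dounce-homogenised in PBS pH 7.4 containing 1 mM MgCl2, and the crude extract, at 1 mg/mL protein, was exposed to 10 μM compound for 30 min. Aliquots were heated for 3 min across 48°C-58°C, pooled, brought to 0.5% NP-40 at 4°C and spun at 21,000xg for 90 min, with the supernatant taken as soluble protein. TMTpro 16plex LC-MS/MS with equalised channel sums quantified that protein. Values are log-two fold changes in thermal stability relative to solvent controls, taken from duplicates.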

pictilisib = compound: CS(=O)(=O)N1CCN(Cc2cc3nc(-c4cccc5[nH]ncc45)nc(N4CCOCC4)c3s2)CC1 [pictilisib]
In short: as §1

crizotinib = compound: C[C@@H](Oc1cc(-c2cnn(C3CCNCC3)c2)cnc1N)c1c(Cl)ccc(F)c1Cl [crizotinib]
In short: as §1

duvelisib = compound: C[C@H](Nc1ncnc2nc[nH]c12)c1cc2cccc(Cl)c2c(=O)n1-c1ccccc1 [duvelisib]
In short: as §1

tozasertib = compound: Cc1cc(Nc2cc(N3CCN(C)CC3)nc(Sc3ccc(NC(=O)C4CC4)cc3)n2)n[nH]1 [tozasertib]
In short: as §1

doramapimod = compound: Cc1ccc(-n2nc(C(C)(C)C)cc2NC(=O)Nc2ccc(OCCN3CCOCC3)c3ccccc23)cc1 [doramapimod]
In short: as §1

bafetinib = compound: Cc1ccc(NC(=O)c2ccc(CN3CC[C@H](N(C)C)C3)c(C(F)(F)F)c2)cc1Nc1nccc(-c2cncnc2)n1 [bafetinib]
In short: as §1

nilotinib = compound: Cc1cn(-c2cc(NC(=O)c3ccc(C)c(Nc4nccc(-c5cccnc5)n4)c3)cc(C(F)(F)F)c2)cn1 [nilotinib]
In short: as §1

[1] = compound: Cc1nc(Nc2n[nH]c3c2CN(C(=O)N[C@H](CN(C)C)c2ccccc2)C3(C)C)c2sccc2n1
In short: as §1

dasatinib = compound: Cc1nc(Nc2ncc(C(=O)Nc3c(C)cccc3Cl)s2)cc(N2CCN(CCO)CC2)n1 [dasatinib]
In short: as §1

[2] = compound: Cc1ncc(-c2ccnc(Nc3ccc(S(C)(=O)=O)cc3)n2)n1C(C)C
In short: as §1

[3] = compound: Cn1cc(-c2ccc3c(c2)CCN3C(=O)Cc2cccc(C(F)(F)F)c2)c2c(N)ncnc21
In short: as §1

quisinostat = compound: Cn1cc(CNCC2CCN(c3ncc(C(=O)NO)cn3)CC2)c2ccccc21 [quisinostat]
In short: as §1

tipifarnib = compound: Cn1cncc1[C@@](N)(c1ccc(Cl)cc1)c1ccc2c(c1)c(-c1cccc(Cl)c1)cc(=O)n2C [tipifarnib]
In short: as §1

[4] = compound: NC(=O)Nc1cc(-c2cccc(F)c2)sc1C(=O)N[C@H]1CCCNC1
In short: as §1

[5] = compound: NC(=O)c1cnc(N[C@@H]2CCCC[C@@H]2N)nc1Nc1cccc(-n2nccn2)c1
In short: as §1

[6] = compound: NC1(c2ccc(-c3nc4ccn5c(=O)[nH]nc5c4cc3-c3ccccc3)cc2)CCC1
In short: as §1

[7] = compound: C[C@H](C1=CC=C(C=C1)C(=O)NC2=C3C=CNC3=NC=C2)N
In short: as §1

gandotinib = compound: Cc1cc(Nc2cc(CN3CCOCC3)c3nc(C)c(Cc4ccc(Cl)cc4F)n3n2)n[nH]1 [gandotinib]
In short: as §1

[8] = compound: Cc1cccc(CC(=O)N2CCc3c2ccc(-c2cn(C)c4ncnc(N)c24)c3F)n1
In short: as §1

Row | Target | log2 fold change (lapatinib) | log2 fold change (pictilisib) | log2 fold change (crizotinib) | log2 fold change (duvelisib) | log2 fold change (tozasertib) | log2 fold change (doramapimod) | log2 fold change (bafetinib) | log2 fold change (nilotinib) | log2 fold change [1] | log2 fold change (dasatinib) | log2 fold change [2] | log2 fold change [3] | log2 fold change (quisinostat) | log2 fold change (tipifarnib) | log2 fold change [4] | log2 fold change [5] | log2 fold change [6] | log2 fold change [7] | log2 fold change (gandotinib) | log2 fold change [8]
1 | MAP4 isoform 5 (UniProt P27816) | inactive: -0.089 | inactive: -0.008 | inactive: -0.034 | inactive: 0.159 | inactive: 0.008 | inactive: -0.061 | inactive: 0.081 | inactive: -0.168 | inactive: -0.029 | inactive: -0.371 | inactive: 0.291 | inactive: 0.029 | inactive: -0.036 | inactive: -0.101 | inactive: 0.03 | inactive: -0.02 | inactive: -0.213 | – | – | –
2 | LZTS2 (UniProt Q9BRK4) | inactive: -0.06 | inactive: 0.051 | inactive: -0.015 | inactive: -0.019 | inactive: 0.127 | inactive: 0.038 | inactive: -0.119 | inactive: 0.026 | inactive: -0.075 | inactive: 0.007 | inactive: 0.062 | inactive: -0.03 | inactive: 0.006 | inactive: -0.06 | inactive: -0.014 | inactive: 0.093 | inactive: 0.062 | – | – | –
3 | MAP2K5 (UniProt Q13163) | inactive: 0.038 | inactive: -0.021 | inactive: -0.109 | inactive: 0.152 | – | inactive: -0.017 | inactive: -0.436 | inactive: 0.019 | inactive: -0.086 | inactive: -0.229 | inactive: -0.143 | inactive: 0.079 | inactive: -0.152 | inactive: -0.015 | active: 0.925 | inactive: 0.035 | inactive: -0.048 | inactive: 0.013 | inactive: -0.089 | inactive: 0.105
4 | MAGI1 isoform 6 (UniProt Q96QZ7) | inactive: -0.023 | inactive: -0.002 | inactive: -0.005 | inactive: 0.017 | inactive: -0.016 | inactive: 0.056 | inactive: 0.033 | inactive: -0.032 | inactive: -0.024 | inactive: -0.015 | inactive: -0.033 | inactive: 0.005 | inactive: -0.004 | inactive: 0.043 | inactive: -0.037 | inactive: -0.018 | inactive: 0.01 | inactive: -0.059 | inactive: -0.127 | inactive: 0.027
5 | MANBAL (UniProt Q9NQG1) | inactive: -0.009 | inactive: -0.019 | – | – | inactive: 0.067 | – | inactive: 0.059 | – | – | – | – | – | – | – | – | inactive: -0.044 | inactive: -0.068 | inactive: -0.044 | inactive: 0.008 | inactive: 0.062
6 | MAFF (UniProt Q9ULX9) | inactive: -0.08 | – | inactive: 0.031 | – | inactive: -0.132 | inactive: 0.147 | – | – | – | – | – | – | inactive: -0.022 | – | inactive: -0.03 | inactive: 0.117 | inactive: 0.135 | inactive: 0.078 | inactive: -0.007 | inactive: -0.026
7 | MAP3K5 (UniProt Q99683) | inactive: -0.059 | inactive: 0.112 | inactive: -0.415 | – | inactive: 0.055 | inactive: -0.003 | inactive: -0.087 | inactive: -0.14 | inactive: -0.134 | – | inactive: 0.065 | – | inactive: 0 | inactive: 0.2 | inactive: 0.367 | inactive: -0.091 | – | inactive: 0.072 | inactive: 0.065 | inactive: 0.147
8 | MAGI3 isoform 1 (UniProt Q5TCQ9) | inactive: -0.041 | inactive: 0.006 | – | inactive: 0.128 | inactive: -0.001 | – | inactive: 0 | inactive: -0.212 | inactive: -0.128 | inactive: 0.012 | inactive: 0.081 | inactive: 0.02 | – | inactive: 0 | – | inactive: 0.018 | inactive: 0.052 | inactive: -0.029 | inactive: -0.119 | inactive: 0.07
9 | LY6E (UniProt Q16553) | inactive: -0.026 | inactive: 0.071 | – | – | inactive: 0.079 | – | inactive: -0.2 | inactive: -0.141 | inactive: 0.031 | – | inactive: 0.056 | – | – | inactive: 0.033 | – | inactive: 0.08 | – | active: -1.51 | inactive: 0.412 | inactive: 0.588
10 | MAP4K2 (UniProt Q12851) | inactive: -0.164 | inactive: 0.126 | – | inactive: 0.077 | inactive: 0.054 | inactive: 0.035 | inactive: -0.126 | – | – | inactive: 0.511 | – | inactive: 0.123 | inactive: -0.193 | – | active: 0.965 | inactive: 0.159 | inactive: -0.062 | inactive: 0.145 | inactive: 0.273 | inactive: -0.015
11 | LTV1 (UniProt Q96GA3) | inactive: 0.004 | inactive: 0.002 | inactive: 0.013 | inactive: -0.009 | inactive: -0.003 | inactive: -0.044 | inactive: -0.021 | inactive: -0.029 | inactive: 0.022 | inactive: 0.052 | inactive: -0.035 | inactive: 0.019 | inactive: 0.026 | inactive: -0.001 | inactive: -0.003 | inactive: -0.011 | inactive: -0.021 | inactive: 0.041 | inactive: -0.025 | inactive: -0.034
12 | MAST2 (UniProt Q6P0Q8) | inactive: 0.012 | inactive: 0.161 | inactive: -0.004 | inactive: -0.065 | inactive: 0.148 | inactive: -0.034 | inactive: -0.289 | – | – | inactive: 0.049 | – | inactive: 0.044 | inactive: -0.024 | – | inactive: 0.047 | inactive: -0.005 | inactive: -0.036 | inactive: -0.171 | inactive: -0.07 | inactive: -0.092
13 | MAGEF1 (UniProt Q9HAY2) | inactive: -0.149 | – | – | – | – | – | – | – | – | – | – | – | – | – | – | inactive: 0.034 | – | – | – | –
